Test results taken from PMC11065875.
Construct, isoform or probe ends are uncertain for at least one entry.

Experiments:
[1] = tested on: E3.10 (E3 ELP fused to FUS RRM and RGG domains); experiment: coacervate partitioning, agarose gel; settings: LLPS in buffer, artificial saliva and nasal fluid; recombinant protein; single-stranded DNA
[2] = tested on: E3.10 (E3 ELP fused to FUS RRM and RGG domains); experiment: EMSA; settings: EMSA in 2.5% agarose, 30 min incubation, 0.5 uM ssDNA1, fusions in 1x PBS (or 50% artificial fluids) at RT, His-ELPs at RT in 37 mM citric acid/126 mM Na2HPO4 pH 6, recombinant protein, single-stranded DNA

Measured: binding result

GGGTTCCTTGCTAGCCAGAGAGCTCCCGGGCTCGACCTGGTCTAACAAGAGAGACC [ssDNA1]
binds: [1] | [2]; 1x PBS | [2]; 50% PBS/50% artificial nasopharyngeal fluid | [2]; 50% PBS/50% artificial saliva
